Experimental findings from PMC12519287 are described below.

Assay [1] has as its target T1, FLAG-PPP1R21 FL (full-length protein phosphatase 1 regulatory subunit 21 with a FLAG tag) (human) (UniProt Q6ZMI0).
T1 sequence: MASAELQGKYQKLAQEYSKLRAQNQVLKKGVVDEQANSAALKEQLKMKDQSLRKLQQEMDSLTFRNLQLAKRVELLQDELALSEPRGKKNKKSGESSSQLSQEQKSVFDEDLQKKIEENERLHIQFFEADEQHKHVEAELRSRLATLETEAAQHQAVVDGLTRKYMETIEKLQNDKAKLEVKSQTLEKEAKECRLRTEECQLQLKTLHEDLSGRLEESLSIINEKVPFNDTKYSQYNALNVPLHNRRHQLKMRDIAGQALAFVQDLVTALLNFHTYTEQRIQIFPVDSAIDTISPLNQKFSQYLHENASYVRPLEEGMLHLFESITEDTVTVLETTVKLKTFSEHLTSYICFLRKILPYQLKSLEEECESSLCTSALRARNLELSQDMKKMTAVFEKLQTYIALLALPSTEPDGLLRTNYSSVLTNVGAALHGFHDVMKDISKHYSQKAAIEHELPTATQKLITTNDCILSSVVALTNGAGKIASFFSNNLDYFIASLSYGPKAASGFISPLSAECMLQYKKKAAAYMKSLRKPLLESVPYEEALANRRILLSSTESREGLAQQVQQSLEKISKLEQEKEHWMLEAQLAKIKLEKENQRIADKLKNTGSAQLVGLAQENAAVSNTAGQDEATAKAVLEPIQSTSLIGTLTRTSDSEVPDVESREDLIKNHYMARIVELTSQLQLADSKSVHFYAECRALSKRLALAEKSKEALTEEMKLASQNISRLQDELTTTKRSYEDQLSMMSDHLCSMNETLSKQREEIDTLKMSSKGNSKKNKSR
Description: co-IP; HEK293T cells cotransfected with full-length or truncated FLAG-PPP1R21 along with Myc-PP1cs and HA-AEG-1 for 48 h; whole-cell lysates (0.5% CHAPS lysis buffer); IP with the anti-FLAG antibody; immunoblotting with anti-Myc and anti-HA. For orientation: In western blotting, separated proteins are transferred to a membrane and probed.

For assay [2], the target named is T2, HA-AEG-1 WT (astrocyte elevated gene-1, HA-tagged) (human) (UniProt Q86UE4).
T2 sequence: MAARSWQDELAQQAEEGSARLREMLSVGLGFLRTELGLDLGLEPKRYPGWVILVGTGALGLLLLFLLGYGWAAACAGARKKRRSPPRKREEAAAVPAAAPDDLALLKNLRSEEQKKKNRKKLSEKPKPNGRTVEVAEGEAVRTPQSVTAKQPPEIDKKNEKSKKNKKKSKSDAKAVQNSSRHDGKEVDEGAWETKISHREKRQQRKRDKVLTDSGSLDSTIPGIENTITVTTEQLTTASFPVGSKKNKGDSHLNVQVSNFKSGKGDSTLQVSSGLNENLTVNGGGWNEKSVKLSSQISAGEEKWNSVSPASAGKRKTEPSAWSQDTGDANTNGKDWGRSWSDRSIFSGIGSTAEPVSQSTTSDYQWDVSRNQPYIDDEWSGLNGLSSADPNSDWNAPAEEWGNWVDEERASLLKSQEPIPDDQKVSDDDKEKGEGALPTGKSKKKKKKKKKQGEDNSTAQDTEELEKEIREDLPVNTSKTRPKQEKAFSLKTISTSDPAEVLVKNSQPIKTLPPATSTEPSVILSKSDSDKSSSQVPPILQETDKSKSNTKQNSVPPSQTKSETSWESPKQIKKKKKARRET
Description: co-IP; HEK293T cells transfected with HA-AEG-1 or FLAG-PPP1R21 plasmids for 48 h; whole-cell lysates (0.5% CHAPS lysis buffer); IP with anti-HA or anti-FLAG; endogenous partner detected by Western blotting.

Assay [3] has as its target T3, AEG-1 S308/426D double mutant with HA tag, stably expressed in BGC823 (human) (UniProt Q86UE4).
T3 sequence: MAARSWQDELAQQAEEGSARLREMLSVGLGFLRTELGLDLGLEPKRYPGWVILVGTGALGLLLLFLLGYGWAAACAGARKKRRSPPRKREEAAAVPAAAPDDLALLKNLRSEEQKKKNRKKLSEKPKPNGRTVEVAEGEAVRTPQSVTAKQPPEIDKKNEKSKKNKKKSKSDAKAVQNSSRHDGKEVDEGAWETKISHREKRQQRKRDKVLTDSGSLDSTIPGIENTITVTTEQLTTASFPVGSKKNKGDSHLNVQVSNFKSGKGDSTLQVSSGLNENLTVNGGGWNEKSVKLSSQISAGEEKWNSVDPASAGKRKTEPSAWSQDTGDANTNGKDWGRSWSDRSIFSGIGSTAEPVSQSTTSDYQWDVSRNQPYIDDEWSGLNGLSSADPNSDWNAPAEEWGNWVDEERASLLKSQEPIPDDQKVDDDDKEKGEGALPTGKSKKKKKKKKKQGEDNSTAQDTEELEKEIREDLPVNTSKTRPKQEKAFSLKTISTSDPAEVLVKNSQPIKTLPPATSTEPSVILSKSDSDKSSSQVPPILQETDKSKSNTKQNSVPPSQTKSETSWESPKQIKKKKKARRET
The experiment in a line: co-IP; BGC823 cells stably expressing AEG-1 WT or S308/426D (with HA tag), cultured for 24 h; whole-cell lysates (0.5% CHAPS lysis buffer); IP with the anti-HA antibody; Western blotting.

Assay [4] concerns the target T4, AEG-1 WT with HA tag, stably expressed in BGC823 (human) (UniProt Q86UE4).
T4 sequence: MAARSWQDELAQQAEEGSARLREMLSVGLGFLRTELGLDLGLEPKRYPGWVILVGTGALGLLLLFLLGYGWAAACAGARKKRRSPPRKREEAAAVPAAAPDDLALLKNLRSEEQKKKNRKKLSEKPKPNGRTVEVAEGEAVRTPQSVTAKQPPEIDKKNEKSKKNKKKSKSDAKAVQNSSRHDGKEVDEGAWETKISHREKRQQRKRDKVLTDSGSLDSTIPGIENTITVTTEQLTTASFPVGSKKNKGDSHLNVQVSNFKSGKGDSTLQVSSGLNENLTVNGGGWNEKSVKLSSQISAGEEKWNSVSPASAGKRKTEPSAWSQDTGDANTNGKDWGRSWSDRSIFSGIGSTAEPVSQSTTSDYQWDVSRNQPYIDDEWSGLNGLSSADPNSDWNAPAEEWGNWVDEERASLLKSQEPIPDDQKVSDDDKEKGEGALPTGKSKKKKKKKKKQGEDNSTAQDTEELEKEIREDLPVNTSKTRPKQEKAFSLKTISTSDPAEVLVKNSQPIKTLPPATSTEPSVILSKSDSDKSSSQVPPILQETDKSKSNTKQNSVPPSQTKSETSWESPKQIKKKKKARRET
Described as above.

The target of assay [5] is T5, endogenous AEG-1 (BGC823) (human (endogenous in BGC823)) (UniProt Q86UE4).
T5 sequence: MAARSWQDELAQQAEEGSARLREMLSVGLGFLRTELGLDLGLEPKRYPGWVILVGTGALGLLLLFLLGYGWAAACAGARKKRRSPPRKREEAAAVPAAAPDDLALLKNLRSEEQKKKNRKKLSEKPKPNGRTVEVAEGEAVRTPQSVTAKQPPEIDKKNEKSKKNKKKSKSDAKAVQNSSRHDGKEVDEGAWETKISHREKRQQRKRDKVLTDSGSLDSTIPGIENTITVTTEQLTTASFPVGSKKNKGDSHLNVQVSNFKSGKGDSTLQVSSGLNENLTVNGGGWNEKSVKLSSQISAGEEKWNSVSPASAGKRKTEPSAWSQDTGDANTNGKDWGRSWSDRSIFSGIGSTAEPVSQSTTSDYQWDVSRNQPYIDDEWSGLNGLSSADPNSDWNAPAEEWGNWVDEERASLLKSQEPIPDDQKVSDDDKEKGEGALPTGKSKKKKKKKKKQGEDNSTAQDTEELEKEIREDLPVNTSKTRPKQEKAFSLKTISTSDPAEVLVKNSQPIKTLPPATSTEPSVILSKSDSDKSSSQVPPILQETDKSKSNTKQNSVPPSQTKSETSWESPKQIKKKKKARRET
The experiment in a line: co-IP; BGC823 cells, treated with 100 ng/ml CXCL12 for 24 h or not; whole-cell lysates (0.5% CHAPS lysis buffer); IP with the anti-AEG-1 antibody; both proteins endogenous; Western blotting.

Assay [6] has as its target T1, FLAG-PPP1R21 FL (full-length protein phosphatase 1 regulatory subunit 21 with a FLAG tag) (human). The experiment in a line: co-IP; HEK293T cells transfected with HA-AEG-1 or FLAG-PPP1R21 plasmids for 48 h; whole-cell lysates (0.5% CHAPS lysis buffer); IP with anti-HA or anti-FLAG; endogenous partner detected by Western blotting.

These are yes or no findings as the source states them, for the method shown. In cells and extracts the contact can be indirect. Some entries that bind do so weakly or less than the wild type. For some of these results: Sequences can lack the tags named with a protein.

Turning to “Myc-PP1cs (Myc-tagged protein phosphatase 1 catalytic subunit) (from UniProt P62136-1 1-330) (enzyme)”, in assay [1], the binding result is given as “binds”.

B1: endogenous PPP1R21 (HEK293T) (protein, UniProt Q6ZMI0 1-780)
chain: MASAELQGKYQKLAQEYSKLRAQNQVLKKGVVDEQANSAALKEQLKMKDQSLRKLQQEMDSLTFRNLQLAKRVELLQDELALSEPRGKKNKKSGESSSQLSQEQKSVFDEDLQKKIEENERLHIQFFEADEQHKHVEAELRSRLATLETEAAQHQAVVDGLTRKYMETIEKLQNDKAKLEVKSQTLEKEAKECRLRTEECQLQLKTLHEDLSGRLEESLSIINEKVPFNDTKYSQYNALNVPLHNRRHQLKMRDIAGQALAFVQDLVTALLNFHTYTEQRIQIFPVDSAIDTISPLNQKFSQYLHENASYVRPLEEGMLHLFESITEDTVTVLETTVKLKTFSEHLTSYICFLRKILPYQLKSLEEECESSLCTSALRARNLELSQDMKKMTAVFEKLQTYIALLALPSTEPDGLLRTNYSSVLTNVGAALHGFHDVMKDISKHYSQKAAIEHELPTATQKLITTNDCILSSVVALTNGAGKIASFFSNNLDYFIASLSYGPKAASGFISPLSAECMLQYKKKAAAYMKSLRKPLLESVPYEEALANRRILLSSTESREGLAQQVQQSLEKISKLEQEKEHWMLEAQLAKIKLEKENQRIADKLKNTGSAQLVGLAQENAAVSNTAGQDEATAKAVLEPIQSTSLIGTLTRTSDSEVPDVESREDLIKNHYMARIVELTSQLQLADSKSVHFYAECRALSKRLALAEKSKEALTEEMKLASQNISRLQDELTTTKRSYEDQLSMMSDHLCSMNETLSKQREEIDTLKMSSKGNSKKNKSR
For the molecule B1, in assay [2], the binding result is “binds”.

B2: endogenous PPP1R21 (BGC823) (protein, UniProt Q6ZMI0 1-780)
chain: MASAELQGKYQKLAQEYSKLRAQNQVLKKGVVDEQANSAALKEQLKMKDQSLRKLQQEMDSLTFRNLQLAKRVELLQDELALSEPRGKKNKKSGESSSQLSQEQKSVFDEDLQKKIEENERLHIQFFEADEQHKHVEAELRSRLATLETEAAQHQAVVDGLTRKYMETIEKLQNDKAKLEVKSQTLEKEAKECRLRTEECQLQLKTLHEDLSGRLEESLSIINEKVPFNDTKYSQYNALNVPLHNRRHQLKMRDIAGQALAFVQDLVTALLNFHTYTEQRIQIFPVDSAIDTISPLNQKFSQYLHENASYVRPLEEGMLHLFESITEDTVTVLETTVKLKTFSEHLTSYICFLRKILPYQLKSLEEECESSLCTSALRARNLELSQDMKKMTAVFEKLQTYIALLALPSTEPDGLLRTNYSSVLTNVGAALHGFHDVMKDISKHYSQKAAIEHELPTATQKLITTNDCILSSVVALTNGAGKIASFFSNNLDYFIASLSYGPKAASGFISPLSAECMLQYKKKAAAYMKSLRKPLLESVPYEEALANRRILLSSTESREGLAQQVQQSLEKISKLEQEKEHWMLEAQLAKIKLEKENQRIADKLKNTGSAQLVGLAQENAAVSNTAGQDEATAKAVLEPIQSTSLIGTLTRTSDSEVPDVESREDLIKNHYMARIVELTSQLQLADSKSVHFYAECRALSKRLALAEKSKEALTEEMKLASQNISRLQDELTTTKRSYEDQLSMMSDHLCSMNETLSKQREEIDTLKMSSKGNSKKNKSR
Regarding B2, the binding result in assay [3], in assay [4] and in assay [5] was “binds” each time.

B3: endogenous AEG-1 (HEK293T) (protein, UniProt Q86UE4 1-582)
chain: MAARSWQDELAQQAEEGSARLREMLSVGLGFLRTELGLDLGLEPKRYPGWVILVGTGALGLLLLFLLGYGWAAACAGARKKRRSPPRKREEAAAVPAAAPDDLALLKNLRSEEQKKKNRKKLSEKPKPNGRTVEVAEGEAVRTPQSVTAKQPPEIDKKNEKSKKNKKKSKSDAKAVQNSSRHDGKEVDEGAWETKISHREKRQQRKRDKVLTDSGSLDSTIPGIENTITVTTEQLTTASFPVGSKKNKGDSHLNVQVSNFKSGKGDSTLQVSSGLNENLTVNGGGWNEKSVKLSSQISAGEEKWNSVSPASAGKRKTEPSAWSQDTGDANTNGKDWGRSWSDRSIFSGIGSTAEPVSQSTTSDYQWDVSRNQPYIDDEWSGLNGLSSADPNSDWNAPAEEWGNWVDEERASLLKSQEPIPDDQKVSDDDKEKGEGALPTGKSKKKKKKKKKQGEDNSTAQDTEELEKEIREDLPVNTSKTRPKQEKAFSLKTISTSDPAEVLVKNSQPIKTLPPATSTEPSVILSKSDSDKSSSQVPPILQETDKSKSNTKQNSVPPSQTKSETSWESPKQIKKKKKARRET
For B3, the binding result in assay [6] is “binds”.

B4: HA-AEG-1 WT (astrocyte elevated gene-1, HA-tagged) (protein, UniProt Q86UE4 1-582)
chain: MAARSWQDELAQQAEEGSARLREMLSVGLGFLRTELGLDLGLEPKRYPGWVILVGTGALGLLLLFLLGYGWAAACAGARKKRRSPPRKREEAAAVPAAAPDDLALLKNLRSEEQKKKNRKKLSEKPKPNGRTVEVAEGEAVRTPQSVTAKQPPEIDKKNEKSKKNKKKSKSDAKAVQNSSRHDGKEVDEGAWETKISHREKRQQRKRDKVLTDSGSLDSTIPGIENTITVTTEQLTTASFPVGSKKNKGDSHLNVQVSNFKSGKGDSTLQVSSGLNENLTVNGGGWNEKSVKLSSQISAGEEKWNSVSPASAGKRKTEPSAWSQDTGDANTNGKDWGRSWSDRSIFSGIGSTAEPVSQSTTSDYQWDVSRNQPYIDDEWSGLNGLSSADPNSDWNAPAEEWGNWVDEERASLLKSQEPIPDDQKVSDDDKEKGEGALPTGKSKKKKKKKKKQGEDNSTAQDTEELEKEIREDLPVNTSKTRPKQEKAFSLKTISTSDPAEVLVKNSQPIKTLPPATSTEPSVILSKSDSDKSSSQVPPILQETDKSKSNTKQNSVPPSQTKSETSWESPKQIKKKKKARRET
Regarding B4, in assay [1], the binding entry was “binds”.
